Reference: patent US20030095990A1, “Microemulsion facial washes comprising specific oils” (Unilever Home & Personal Care USA, Division of Conopco, Inc., priority 2001, published 2003)
Some of these results come from one statement about several compounds together.

Test: Triolein dissolution test of oils
Assay type: physicochemical

triolein dissolved by the oil [%] | SMILES
≥ 20 | CCCCCCCCCCCCCC(=O)OC(C)C [Isopropanol Myristrate]
≥ 20 | CC(C)CCCC(C)CCCC(C)CCCCC(C)CCCC(C)CCCC(C)C (stereo not drawn) [Squalane]
≥ 20 | CC(C)=CCC/C(C)=C/CC/C(C)=C/CC/C=C(\C)CC/C=C(\C)CCC=C(C)C [Squalene]
